This is an account of results in PMC7819943, “Rice protein-binding microarrays: a tool to detect cis-acting elements near promoter regions in rice”.

Chains of the proteins cited; added tags and fusions are not shown.
UniProt Q0JBA9, entry or part of it: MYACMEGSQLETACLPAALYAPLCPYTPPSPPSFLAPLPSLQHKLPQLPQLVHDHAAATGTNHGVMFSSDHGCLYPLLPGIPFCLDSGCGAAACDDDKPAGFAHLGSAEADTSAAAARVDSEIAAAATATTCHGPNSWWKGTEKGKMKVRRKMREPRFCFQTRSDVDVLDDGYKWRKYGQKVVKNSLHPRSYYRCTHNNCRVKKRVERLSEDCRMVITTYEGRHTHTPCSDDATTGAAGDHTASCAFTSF

Some of the results follow.

In the assay the target is OsWRKY34 (Oryza sativa, UniProt Q0JBA9 1-250). In words: protein-binding microarray (RPBM); PBS, 2% BSA, 51.3 ng/ul salmon testes DNA, 50 uM zinc acetate, 200 nM TF, 25 C, 1 h; high values mean tight binding. Particulars: protein: recombinant; tags: N-terminal polyhistidine and DsRed monomer fusion (pET32a); label: CyDye5-dUTP incorporated in the synthesized complementary strand; 3' TTTTT single-stranded linker to array surface; dsDNA, one strand shown. A digest of the protocol: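 The binding signal is fluorescence intensity per feature, in arbitrary units, read on an Axon 4000B scanner. Polyhistidine- and DsRed-tagged transcription factors (N-terminal fusions) from E. coli BL21-CodonPlus were purified on Ni–NTA and applied at 200 nM for 1 h at 25 °C to a double-stranded, BSA-blocked custom Agilent array in buffer with 50 µM zinc acetate.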
Take “TCCGCGACGCCGTCTCCTGGAACTCGCTCATCGCCGCCTCCGGAGTCACCTAGTGCAG”: the binding signal was 10000 fluorescence intensity (a.u.).

Take “CTCCATGGCACTCACCTCACCACACACCACTCCACCATCACGGAGTCACCTAGTGCAG”: the binding signal was 8450 fluorescence intensity (a.u.).

“GTGGCGTCAAAGTATTGAGGGCGGGGATGCGGCCACCGTACGGAGTCACCTAGTGCAG”: the binding signal is 8640 fluorescence intensity (a.u.).

Consider “ACTTCTTCATTTTAAACCCTCTTTTCGTTTAATTAACGTGCGGAGTCACCTAGTGCAG”, for which the binding signal was 8880 fluorescence intensity (a.u.).

With “AGATCCAACGGCGGAGACCACCGCCGCCCCGTTCCGATCGCGGAGTCACCTAGTGCAG”, the binding signal was 10100 fluorescence intensity (a.u.).

Consider “AGTCTAAAGTCTTTTCAACCTCCCTAGCTCGCTCGCATGCCGGAGTCACCTAGTGCAG”, for which the binding signal was 9010 fluorescence intensity (a.u.).

Regarding “AACCTCTCATTTAATAAGATTCATCACAGTCTTTTTTTTTCGGAGTCACCTAGTGCAG”, the binding signal was 9990 fluorescence intensity (a.u.).

In the case of “GCCCGCGCAGATCCGCGCGGTTCTTTTTTTGTGGGGAGAGCGGAGTCACCTAGTGCAG”, the binding signal was 8850 fluorescence intensity (a.u.).

Turning to “CCTCAAACTTATGCTTGCCCGTTTCTGTTGCAACAAAACCCGGAGTCACCTAGTGCAG”, the binding signal is 11700 fluorescence intensity (a.u.).

With “TAACCTTTACCACACAATATCGTCCATGGACCAAATTATTCGGAGTCACCTAGTGCAG”, the binding signal was 8260 fluorescence intensity (a.u.).

As for “GGTTTTAATTTGTTTGTTACCGATGGCCGCTAAAAAGGAACGGAGTCACCTAGTGCAG”, the binding signal is 11600 fluorescence intensity (a.u.).

On to “AATTTACACTACATATATATTTTGCTGTATATACGTCGGTCGGAGTCACCTAGTGCAG”, for which the binding signal is 8260 fluorescence intensity (a.u.).

As to “CACTTGGCCAAAATGCTCCACCTTCACACTATGGCTTTACCGGAGTCACCTAGTGCAG”, the binding signal is 8140 fluorescence intensity (a.u.).

Turning to “TTGGGTGTTTATATGTTGTAATGTCTGTTCATTACTGTATCGGAGTCACCTAGTGCAG”, the binding signal is 8880 fluorescence intensity (a.u.).

With “CTTGCTACTGTGTTTTGTTTTTCTTGGACCACCCAGTTATCGGAGTCACCTAGTGCAG”, the binding signal is 14400 fluorescence intensity (a.u.).

With “CGTTCGTGCTGCCACCCGTCCGCCGCGCCGCTCCACGCCACGGAGTCACCTAGTGCAG”, the binding signal was 9720 fluorescence intensity (a.u.).

Regarding “CATCCCAAAACACCGAAGTTACCATTTCCCACCCGTTCGACGGAGTCACCTAGTGCAG”, the binding signal was 8570 fluorescence intensity (a.u.).

In the case of “GTTTCTCTGGGATTTGTCTGTCTGATGATCTCACTGGATTCGGAGTCACCTAGTGCAG”, the binding signal is 9040 fluorescence intensity (a.u.).

Take “TGGCATTTTTTTTTTCTTGTGAAAAACCGACGAGAGGAAGCGGAGTCACCTAGTGCAG”: the binding signal was 8190 fluorescence intensity (a.u.).

For the sequence “TCCTCAGCCTCGACGCCGCCTTCCTCTCCTCCTGCGCCGGCGGAGTCACCTAGTGCAG”, the binding signal was 10500 fluorescence intensity (a.u.).

“CCTGCCGTTTTCTTTTTCTTTTTCTTTCCTTTTCCTTTTTCGGAGTCACCTAGTGCAG”: the binding signal is 17000 fluorescence intensity (a.u.).

With “CGCCAACTCAACGCTGAAGCCGCTGCCTCACCATCTCGTCCGGAGTCACCTAGTGCAG”, the binding signal was 8780 fluorescence intensity (a.u.).

For the sequence “ATCTCGCGTCTCTGGTCGACGGCTCTCTACCAGAATACCCCGGAGTCACCTAGTGCAG”, the binding signal was 9480 fluorescence intensity (a.u.).

For the sequence “ACTCTTGCCATGTGTCATCGGTTTATAAGAAAAACCCTAACGGAGTCACCTAGTGCAG”, the binding signal was 8770 fluorescence intensity (a.u.).

Regarding “ACACCAAGTGACCATTCCATTCCATTCCATTCCTTCTCCCCGGAGTCACCTAGTGCAG”, the binding signal was 8410 fluorescence intensity (a.u.).

“ATTAAACTATCCGCCACGTTGCCCGGCTCACCCACCCACTCGGAGTCACCTAGTGCAG”: the binding signal was 8250 fluorescence intensity (a.u.).

For the sequence “TTTTTCTTGTGCTCTATCCATCCATGCCATGCCATTCATCCGGAGTCACCTAGTGCAG”, the binding signal is 10200 fluorescence intensity (a.u.).

“TCCACGTCACACGCTTGCACAGCCACACTTCGCCACCGTTCGGAGTCACCTAGTGCAG”: the binding signal was 10400 fluorescence intensity (a.u.).

As to “CTAGGCTTTCCTCTGTTGCTTGGTTGCATTGCATGCTTCTCGGAGTCACCTAGTGCAG”, the binding signal was 9950 fluorescence intensity (a.u.).

“GTCGCACGGCCACTTAACTTCTTCCTCTCGTGTGAATGGTCGGAGTCACCTAGTGCAG”: the binding signal is 8680 fluorescence intensity (a.u.).

Take “CTTGTGCCGCCGTCCTTGCCCGCTGCTCCTGCCGCCTCCTCGGAGTCACCTAGTGCAG”: the binding signal was 9660 fluorescence intensity (a.u.).

As to “GTCATTCCTATGTTTTTCCTGTATTTTGCAATCCTCTGTTCGGAGTCACCTAGTGCAG”, the binding signal was 13500 fluorescence intensity (a.u.).

With “CTATATTTGCTAGTTTGATTCATGTCCACAGATTTTTATTCGGAGTCACCTAGTGCAG”, the binding signal was 8150 fluorescence intensity (a.u.).

In the case of “GAATAAGACGAATGGTCAAATATGTGCTAAAAAGTCAACGCGGAGTCACCTAGTGCAG”, the binding signal is 10000 fluorescence intensity (a.u.).

In the case of “CAGTGTAGGGGAGAGAGAGAGAGAGTGGGGTAGAGGGATGCGGAGTCACCTAGTGCAG”, the binding signal is 8980 fluorescence intensity (a.u.).

As to “GCACTATCAATTCTTCTTGATTCTTCTTTGTATTTGGATTCGGAGTCACCTAGTGCAG”, the binding signal is 10000 fluorescence intensity (a.u.).

As for “TGCCCGGCTCGGCTACCCCGTCGCCACCGCCGTTCGTTTCCGGAGTCACCTAGTGCAG”, the binding signal is 8580 fluorescence intensity (a.u.).

“GCTTTTTTTTCTACTAAGTTTATTTATGGTTCTTTGTTTTCGGAGTCACCTAGTGCAG”: the binding signal was 9420 fluorescence intensity (a.u.).

“CTTCAGCCTCCGCCACGCAACAATTAAATACGTGCACTCCCGGAGTCACCTAGTGCAG”: the binding signal is 10400 fluorescence intensity (a.u.).

Take “GGAGGTGGAAAATCTTTGTTTTTTTCCTGGTTACGATCTCCGGAGTCACCTAGTGCAG”: the binding signal is 9150 fluorescence intensity (a.u.).

As to “GTGTCATGAAGGTATTAAGACTTTTTTTATGTTATCACAGCGGAGTCACCTAGTGCAG”, the binding signal was 8120 fluorescence intensity (a.u.).

In the case of “GTATATCATCGTTTTTGTACGTGGTTCAATGTATATTACTCGGAGTCACCTAGTGCAG”, the binding signal was 9220 fluorescence intensity (a.u.).
